Test results published in PubChem BioAssay AID909 (National Center for Advancing Translational Sciences (NCATS), 2007).
The inconclusive results got no clear call from the source. Potencies of inconclusive entries are doubtful fits and often do not repeat.

Protein sequences, listed by entry. Tags and fused reporters are not part of them. Residues count along the entry.
UniProt P55210, 24-198 limits assumed: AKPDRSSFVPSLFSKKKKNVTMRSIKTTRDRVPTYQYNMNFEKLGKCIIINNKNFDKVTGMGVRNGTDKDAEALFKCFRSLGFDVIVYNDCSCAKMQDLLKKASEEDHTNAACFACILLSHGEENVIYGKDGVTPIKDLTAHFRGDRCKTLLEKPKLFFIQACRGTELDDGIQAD
UniProt P55210, 207-303 limits assumed: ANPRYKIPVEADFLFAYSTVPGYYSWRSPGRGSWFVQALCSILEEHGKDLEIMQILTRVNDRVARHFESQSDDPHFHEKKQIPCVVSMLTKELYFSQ

Target: Caspase-7 (Homo sapiens) (UniProt P55210)
Assay: Concentration-Response Counterscreen for Redox Active Inhibitors of Caspase-7: Catalase
Settings: Caspase-7 Ac-DEVD-AFC fluorescence rate, catalase buffer; active = well fitted inhibition curve with a large enough effect in the main read-out, with a control signal flat; inconclusive = small, poorly fitted or top-dose-only effect, or a change in a side signal; inactive = no such curve, though single readings can be large or run the other way
From the text: NIH Molecular Libraries Screening Centers Network [MLSCN] NIH Chemical Genomics Center [NCGC] MLSCN Grant: 1 X01 MH078950-01 PI Name: Dr. James Wells, Dr. Enrique Perez-Paya, Dr.Janice Williams, Dr. Dennis Wolan, a person NCGC Assay Overview: The caspases (Cysteine Aspartyl Protease) comprise a related family of 14 dimeric proteases that are critical mediators of apoptosis (programmed cell death) and inflammation. The caspases represent an important class of drug targets for stroke, ischemia, cancer and inflammatory diseases. […] One goal of this project was to identify compounds that act as allosteric inhibitors via stabilizing the procaspase form of the enzyme. […] After initiation of the assay with substrate the plates were rapidly read using an automated robotic system (Kalypsys, Inc.) to maintain consistent timing. […]
NCGC Assay Protocol Summary: Caspase 7 was prepared in buffer (50 mM HEPES pH 7.5, 50 mM KCl, 200 mM NaCl, 50 units/well catalase (from bovine liver, Sigma cat#100), 0.1% CHAPS) at a concentration of 66.6 nM and 3 uL was dispensed to all wells using black solid Kalypsys 1536-well plates. […] The plates were then exposed using 405 nm excitation/520 nm emission filters for 4 sec and read at 20 sec intervals for 3 min. […]

Row | Structure (SMILES) | Potency
1 | Cn1ncnc2c(=O)n(C)c(=O)nc1-2 | inconclusive: 1000 nM [inhibitor, full curve]
2 | CCn1nc(-c2ccccc2)nc2c(=O)n(C)c(=O)nc1-2 | inconclusive: 891 nM [inhibitor, full curve]
